At least one compound was matched to its structure with a doubt left.
Legend:
[1] = system: wild-type (C57BL/6J) female mice; assay: Experiment 1: RAP-536 and rapamycin dosing in wild-type mice (CBC, reticulocytes, spleen, flow cytometry); type: in vivo, mouse; settings: day 15
[2] = system: th3/+ mice (B6.129P2-Hbb-b1tm1Unc Hbb-b2tm1Unc/J, beta-thalassemia mouse model); assay: Experiment 2: RAP-536 and rapamycin dosing in beta-thalassemia model mice (CBC, reticulocytes, spleen, flow cytometry); type: in vivo; settings: two weeks, day 15
[3] = RAP-536 10 mg/kg SC and/or rapamycin 4 mg/kg IP, two weeks
[4] = RAP-536 10 mg/kg SC or rapamycin 4 mg/kg IP, two weeks
[5] = RAP-536 10 mg/kg SC and/or rapamycin 4 mg/kg IP

Question: Which “RBC cell size (MCV)” value [1, 3] does the source give for `CO[C@H]1C[C@@H]2CC[C@@H](C)[C@@](O)(O2)C(=O)C(=O)N2CCCC[C@H]2C(=O)O[C@H]([C@H](C)C[C@@H]2CC[C@@H](O)[C@H](OC)C2)CC(=O)[C@H](C)/C=C(\C)[C@@H](O)[C@@H](OC)C(=O)[C@H](C)C[C@H](C)/C=C/C=C/C=C/1C` [rapamycin] here?
Answer: MCV did not decrease

Question: And the “reticulocyte levels in blood (percentage and absolute numbers)” value [1, 3]?
Answer: reduced the reticulocyte levels in blood

Question: And the spleen size [1, 3]?
Answer: reduced spleen size

Question: What about the “total amount of HGB/cell (MCH)” value [1, 3] of the same molecule?
Answer: MCH levels were higher

Question: And the “H reticulocyte percentage (High RNA, immature reticulocytes) in blood” value [1, 4]?
Answer: H reticulocyte percentage decreased

Question: What about the “M reticulocyte percentage (Medium RNA) in blood” value [1, 4] of the same molecule?
Answer: L and M reticulocyte percentages increased

Question: And the “red blood cell (RBC) levels in blood” value ([1]; RAP-536 10 mg/kg SC twice a week and/or rapamycin 4 mg/kg IP, two weeks)?
Answer: increased RBC levels at similar levels

Question: What about the “erythroblast/CD45(+) ratio in spleen” value ([1]; flow cytometry) of the same molecule?
Answer: decreased

Question: What about the “L reticulocyte percentage (Low RNA, mature reticulocytes) in blood” value ([1]; rapamycin 4 mg/kg IP, two weeks) of the same molecule?
Answer: L and M reticulocyte percentages increased

Question: And the “H reticulocyte percentage (High RNA, immature reticulocytes) in blood” value [2, 5]?
Answer: H reticulocyte percentage decreased

Question: What about the “RBC level compared with the RBC level in wild-type mice” value [2, 5] of the same molecule?
Answer: reached the RBC level in wild-type mice

Question: And the “reticulocyte absolute numbers in blood” value [2, 5]?
Answer: increased significantly

Question: And the spleen size [2, 5]?
Answer: reduced

Question: What about the “red blood cell (RBC) levels in blood” value ([2]; RAP-536 10 mg/kg SC twice a week and/or rapamycin 4 mg/kg IP) of the same molecule?
Answer: increased RBC levels at similar levels
